This is one part of the list. Further columns of the screen follow, without active or inactive calls. The list favours compounds with an active or inconclusive main result. Words in brackets tell the shape of the fitted curve; partial curves, single points and poor fits give uncertain potencies.
Test: qHTS Assay for Lipid Storage Modulators in Drosophila S3 Cells;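 as to cell number change: cells counted by Cell Tracker Red CMTPX staining in the red channel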
Details: BODIPY lipid droplet fluorescence, 18-24 h; for cell number change: measured here: cell count max response, cells fed with added oleic acid
Summary of the method: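 Laser-scanning cytometry quantifies lipid droplet accumulation (500–530 nm total intensity; droplet/cell object ratio) in oleic acid-fed (400 uM added) Drosophila S3 cells treated with a concentration series. 20 uM Triacsin C defined 100% inhibition.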

[1] = measured here: cell number channel AC50, cells fed with added oleic acid
[2] = measured here: lipid fluorescence (Fed channel) AC50, cells fed with added oleic acid

CCn1c(SCC(=O)NC(C)C)nnc1-c1cccs1
AC50 [1]: 1160 nM [rising, full curve, poor fit] | AC50 [2]: 5.8 nM [rising, full curve, poor fit]

O=C(NNC(=O)c1ccc(NC(=O)c2ccccc2)cc1)c1ccccc1
cell number change: -10.8%

O=C(NN=C1CCCC1)c1cccc(Br)c1
cell number change: -13.9% | AC50 [2]: 731 nM [falling, single point]

COc1ccccc1-n1cc2c([N+](=O)[O-])cc([N+](=O)[O-])cc2n1
cell number change: -2.78% | AC50 [1]: 92 nM [falling, partial curve, poor fit] | AC50 [2]: 580 nM [rising, single point]

Cc1ccc(NC2CCCN(C(=O)CSc3ccncc3)C2)cc1C (stereo not given)
cell number change: -12.4%

Cc1cc(/C=C(\C#N)C(=O)NCc2ccccc2)cc(C)c1O
cell number change: -21.8% | AC50 [2]: 29100 nM [falling, single point]

CCCn1c(N)c(N(CCOC)C(=O)c2cccc(Cl)c2)c(=O)[nH]c1=O
cell number change: 17.5% | AC50 [2]: 517 nM [falling, full curve]

CC(=O)Nc1ccc(S(=O)(=O)NCCc2ccccn2)cc1
cell number change: -8.05%

C=CCn1c(O)c(N=NC(=S)Nc2ccc(OC)c(Cl)c2)c2ccccc21
cell number change: -22.6%

Cc1cc(C)n(-c2nc(Nc3ccccc3C(F)(F)F)nc(-n3nc(C)cc3C)n2)n1
cell number change: -57.8% | AC50 [1]: 23100 nM [falling, single point] | AC50 [2]: 29100 nM [falling, single point]

CN1CCN(C(=O)c2cc3nc(-c4ccc(Cl)cc4)cc(C(F)(F)F)n3n2)CC1
cell number change: 39.7% | AC50 [1]: 14600 nM [rising, partial curve] | AC50 [2]: 9200 nM [rising, partial curve]

COc1ccc(N(CC(=O)Nc2cccnc2)S(=O)(=O)c2ccccc2)cc1OC
cell number change: 32.1% | AC50 [1]: 32600 nM [rising, partial curve, poor fit] | AC50 [2]: 6510 nM [rising, partial curve, poor fit]

Cc1ccccc1Nc1nc(N)nc(COC(=O)CCNS(=O)(=O)c2ccccc2)n1
AC50 [1]: 92 nM [rising, full curve, poor fit]

Cc1ccc2c(c1)c1nnc(SCC(=O)Nc3ccccc3C(F)(F)F)nc1n2CC(=O)O
AC50 [2]: 731 nM [rising, single point]

CCCCOC(=O)C1=C(C)NC(=O)NC1c1ccc(OC)cc1 (stereo not given)
cell number change: -21.5% | AC50 [2]: 5800 nM [falling, full curve]

O=C(NCCc1ccccc1)C1CCCN1S(=O)(=O)c1ccc(Cl)cc1 (stereo not given)
cell number change: 22.9%

CC1(C(=O)NCc2cccnc2)CCC(=O)N1Cc1cccs1 (stereo not given)
cell number change: -18% | AC50 [1]: 6510 nM [falling, single point]

CC(=O)Nc1cc2c(=O)n(Cc3ccccc3)c(C)nc2cc1N1CCOCC1
AC50 [1]: 6510 nM [rising, single point] | AC50 [2]: 4110 nM [rising, single point]

O=C(CN1CCC(Cc2ccccc2)CC1)NC(=O)NC1CCCCC1
AC50 [2]: 7.31 nM [falling, full curve]

O=C1CN(C(=O)c2cccs2)c2ccccc2N1
cell number change: -36.5% | AC50 [1]: 46.1 nM [falling, full curve, poor fit]

O=C(Nc1ccccc1)Nc1ccno1
cell number change: 9.86%

CCOC(=O)/C(=C/Nc1ccc(F)c(F)c1)[N+](=O)[O-]
cell number change: 4.27% | AC50 [2]: 6.51 nM [falling, full curve, poor fit]

CN(C)S(=O)(=O)c1cccc(NC(=O)CN2C(=O)C3C4C=CC(C4)C3C2=O)c1 (stereo not given)
AC50 [1]: 92 nM [rising, full curve, poor fit] | AC50 [2]: 6510 nM [rising, single point]

O=C(CSc1nc2c(sc3ccccc32)c(=O)n1Cc1ccccc1)NCC1CCCO1 (stereo not given)
AC50 [2]: 4110 nM [rising, partial curve]

CC(C)Oc1ccc(C(CC(=O)N2CCOCC2)C(C)C)cc1 (stereo not given)
cell number change: -34.2% | AC50 [1]: 3660 nM [falling, full curve, poor fit]

Cc1nnc(NC(=O)c2csc3c2CCCC3)s1
cell number change: 93.6% | AC50 [1]: 16400 nM [rising, partial curve]

COc1cc(/C=C(/C#N)C(=O)NCCc2c[nH]c3ccccc23)ccc1OCc1ccccc1F
cell number change: -10.7% | AC50 [1]: 6510 nM [falling, single point]

O=C(Nc1ccc(Cl)c(Cl)c1)N1CCCCCC1
AC50 [2]: 29100 nM [falling, single point]

Cc1ccc2c(c1)sc1nc(=O)ccn12
cell number change: 23.9% | AC50 [1]: 259 nM [rising, full curve, poor fit]

O=C(N/N=C\c1cccs1)c1sccc1-n1cccc1
cell number change: -28.6% | AC50 [2]: 29100 nM [falling, single point]

O=C(CSC(=S)N1CCCC1)Nc1cc2c(cc1Br)OCCO2
cell number change: 16.8% | AC50 [1]: 130 nM [rising, full curve, poor fit] | AC50 [2]: 580 nM [falling, single point]

CC1CC(OC(=O)C2CCN(S(=O)(=O)c3ccc(F)cc3)CC2)C(=O)O1 (stereo not given)
cell number change: -18.9%

CCCN(CC(=O)Nc1ccccc1C)C(=O)CCCc1c[nH]c2ccccc12
cell number change: -59.3% | AC50 [1]: 2060 nM [falling, full curve] | AC50 [2]: 2060 nM [falling, partial curve]

CCCNC(=O)c1ccc(N2CCC3(CC2)CC(c2ccccc2)=NO3)c(NC(=O)c2cccc(C)c2)c1
AC50 [2]: 651 nM [rising, partial curve, poor fit]

COC(=O)c1sc2[nH]c(=S)n(N)c(=O)c2c1C
cell number change: 38.2%

CCOC(=O)c1c(C)[nH]c(C(=O)OCC(=O)NCc2ccc(C)cc2)c1C
cell number change: 8.96% | AC50 [2]: 58 nM [rising, full curve, poor fit]

CCOC(=O)/C(=N/Nc1ccccc1)N1CCCc2ccccc21
cell number change: -44.8% | AC50 [1]: 29100 nM [falling, single point]

Cc1nn(-c2c(Cl)cc(Cl)cc2Cl)c(=O)c2ccccc12
cell number change: -2.13%

O=C(NN=C1c2ccccc2-c2ccccc21)c1ccccc1Br
cell number change: -8.93% | AC50 [1]: 731 nM [rising, full curve, poor fit] | AC50 [2]: 580 nM [rising, single point]

— PubChem BioAssay AID2685 (National Center for Advancing Translational Sciences (NCATS), 2010)
